Values quoted from earlier work in patent US20260041660A1 (priority 2020, published 2026).
For at least one compound, name, drawing or mass did not settle the structure.

Tested on: SARS-COV-2
Conditions: in vitro; cited from earlier work

CCC(CC)COC(=O)[C@H](C)N[P@](=O)(OC[C@H]1O[C@@](C#N)(c2ccc3c(N)ncnn23)[C@H](O)[C@@H]1O)Oc1ccccc1 [remdesivir, Remdesivir]
inhibition of SARS-COV-2: inhibit SARS-COV-2
